Results from patent US20230312753A1 (IMMUNORIZON, published 2023).
No constants are given. Whether binding was seen depends on the method and setting. Some binding calls cover weakened binding; strength is not graded here.

Experiments:
[1] = molecular target: T1, h5T4-His (recombinant human 5T4) (human, UniProt Q13641 32-355, limits assumed); experiment: ELISA on recombinant proteins
T1 construct: Bought protein; also called recombinant 5T4
T1 sequence (looked up): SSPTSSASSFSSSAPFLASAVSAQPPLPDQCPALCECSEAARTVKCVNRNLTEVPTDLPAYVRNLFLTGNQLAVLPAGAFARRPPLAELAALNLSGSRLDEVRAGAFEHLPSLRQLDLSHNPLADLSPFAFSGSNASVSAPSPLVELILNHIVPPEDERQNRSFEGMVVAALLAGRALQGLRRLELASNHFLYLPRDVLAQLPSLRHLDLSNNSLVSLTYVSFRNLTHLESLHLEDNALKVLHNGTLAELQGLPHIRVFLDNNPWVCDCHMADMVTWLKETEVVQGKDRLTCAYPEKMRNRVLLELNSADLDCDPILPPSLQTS

[2] = molecular target: 5T4 on cells (NCI-H226 endogenous; CHO over-expressing 5T4) (UniProt Q13641); experiment: FACS on cells

B1: IM-1093 Tribody, NKG2A mutant variant (other)
heavy: GGSGGSEVQLVESGGGLVQPGGSLRLSCAASGFTFNTYAMNWVRQAPGKGLEWVARIRSKYNNYATYYADSVKDRFTISRDDSKNTLYLQMNSLRAEDTAVYYCVRHGNFGNSYVSWFAYWGQGTMVTVSSASTKGPSVFPLAPSSKSTSGGTAALGCLVKDYFPEPVTVSWNSGALTSGVHTFPAVLQSSGLYSLSSVVTVPSSSLGTQTYICNVNHKPSNTKVDKRVEPKSCPPCGGGGSDIQMTQSPSSLSASVGDRVTITCRASENIYSALAWYQQKPGKAPKLLIYNAKTLAEGVPSRFSGSGSGTDFTLTISSLQPEDFATYYCQHHAGTPRTFGGGTKVEIKGGGGSGGGGSGGGGSGGGGSQVQLVQSGAEVKKPGASVKVSCKASGYTFTSYWMNWVRQAPGQGLEWMGRIDPYDSETHYAQKLQGRVTMTTDTSTSTAYMELRSLRSDDTAVYYCARGGYDFDVDTLYWFFDVWGQGTTVTVSS
light: GGSGGSQAVVTQEPSLTVSPGGTVTLTCRSSTGAVTTSNYANWVQQKPGQAPRGLIGGTNKRAPGTPARFSGSLLGGKAALTLSGVQPEDEAEYYCALWYSNLWVFGGGTKLTVLGQPKAAPSVTLFPPSSEELQANKATLVCLISDFYPGAVTVAWKADSSPVKAGVETTTPSKQSNNKYAASSYLSLTPEQWKSHRSYSCQVTHEGSTVEKTVAPTECPPCSGGGSDIQMTQSPSSLSASVGDRVTITCRASQGISNYLAWFQQKPGKAPKSLIYRANRLQSGVPSRFSGSGSGTDFTLTISSLQPEDVATYYCLQYDDFPWTFGQGTKLEIKGGGGSGGGGSGGGGSGGGGSQVQLVQSGAEVKKPGASVKVSCKASGYTFTSFWMHWVRQAPGQGLEWMGRIDPNRGGTEYNEKAKSRVTMTADKSTSTAYMELSSLRSEDTAVYYCAGGNPYYPMDYWGQGTTVTVSS
notes: also called NKG2A mutated Tribody
binding [1]: binds | binding [2]: binds
